Results deposited as PubChem BioAssay AID743121 (NCATS, 2013).

Screen: 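Genes whose silencing strengthens cell killing by camptothecin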 (primary screen)
Cells: MDA-MB-231 cells, a human breast cancer line
Reagents: single siRNA against human genes, 20 nM siRNA (0.8 pmol per well)
Time to read-out: 120 h (drug added 48 h after transfection, read 72 h later)
Treatment: camptothecin 20 nM (about EC30) for 72 h; vehicle 0.1% DMSO in parallel plates
Measured: 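CellTiter-Glo ATP signal, scaled to control siRNA as percent viability; sensitisation given as log2 of untreated divided by camptothecin-treated viability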
Scale: log2 vehicle/camptothecin viability: higher = stronger sensitisation to camptothecin
Active means: 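Active genes have an RSA gene-level p-value below 0.001, computed from the ratios of their separate siRNAs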
The deposit covers about 26,000 reagents; shown is an unselected part. 167 of all reagents (0.63%) count as active. 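Calls are per gene from RSA p-values that are not deposited; an individual active-marked siRNA can sensitise only weakly.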 The numbers tell different reagents against one gene apart. Further read-outs or replicates are left out here.

log2 vehicle/camptothecin viability, by gene and reagent
HVCN1: #1 -0.136 inactive; #2 0.189 inactive; #3 -0.511 inactive
RTP2: #1 -0.172 inactive; #2 -0.276 inactive; #3 -0.33 inactive
PRPS1L1: #1 -0.581 inactive; #2 -0.124 inactive; #3 -0.507 inactive; #4 -0.516 inactive
MTMR2: #1 0.173 active; #2 0.561 active; #3 0.315 active; #4 0.259 active
MAP2: #1 -0.442 inactive; #2 0.0208 inactive; #3 -0.294 inactive; #4 0.0943 inactive
AGT: #1 -0.186 inactive; #2 -0.197 inactive; #3 -0.567 inactive; #4 0.265 inactive
SLC7A10: #1 -0.0502 inactive; #2 -0.123 inactive; #3 0.0513 inactive; #4 -0.369 inactive
FBXO22: #1 -0.221 inactive; #2 -0.376 inactive; #3 -0.271 inactive; #4 -0.37 inactive
MED26: #1 0.35 inactive; #2 -0.502 inactive; #3 -0.183 inactive; #4 0.974 inactive
SHROOM2: #1 0.011 inactive; #2 0.118 inactive; #3 -0.49 inactive; #4 -0.234 inactive
ITGB8: #1 -0.297 inactive; #2 -0.176 inactive; #3 0.14 inactive; #4 -0.175 inactive
NCK1: #1 0.32 inactive; #2 0.319 inactive; #3 -0.0122 inactive; #4 -0.265 inactive
ACKR3: #1 -0.487 inactive; #2 -0.265 inactive; #3 0.278 inactive; #4 -0.341 inactive
TKTL1: #1 -0.101 inactive; #2 -0.0139 inactive; #3 0.0528 inactive; #4 -0.135 inactive
KAT6A: #1 -0.364 inactive; #2 -0.389 inactive; #3 0.43 inactive; #4 0.23 inactive
TXLNA: #1 -0.317 inactive; #2 -0.622 inactive; #3 -0.0938 inactive; #4 -0.271 inactive
BTN2A2: #1 -0.222 inactive; #2 -0.261 inactive; #3 -0.369 inactive; #4 -0.523 inactive
PRKACB: #1 -0.101 inactive; #2 0.105 inactive; #3 -0.266 inactive; #4 -0.217 inactive
LAMA3: #1 0.262 inactive; #2 -0.126 inactive; #3 -0.539 inactive; #4 -0.217 inactive
MTMR6: #1 0.139 inactive; #2 -0.243 inactive; #3 0.229 inactive; #4 0.0333 inactive
TGS1: #1 -0.712 inactive; #2 -0.199 inactive; #3 -0.335 inactive; #4 -0.274 inactive
PTPRU: #1 -0.407 inactive; #2 -0.309 inactive; #3 -0.437 inactive; #4 -0.206 inactive
OR1A2: #1 0.749 active; #2 0.283 active; #3 0.386 active; #4 0.491 active

Hits, of those listed so far:
log2 vehicle/camptothecin viability, by gene and reagent
MTMR2: #1 0.173 active; #2 0.561 active; #3 0.315 active; #4 0.259 active
OR1A2: #1 0.749 active; #2 0.283 active; #3 0.386 active; #4 0.491 active
